Assays:
[1] = system: GAME25-Ox transgenic tomato lines; assay: SGA levels by LC-MS in GAME25 over-expressing (GAME25-Ox) tomato lines compared to wild-type; type: in vivo, Solanum lycopersicum
[2] = system: GAME25-Ox eggplant (cv. Tudela); assay: SGA and steroidal saponin profile of eggplant overexpressing tomato GAME25; type: in vivo, Solanum melongena; settings: lines #E1, #E2

## acetoxy-hydroxytomatine
[1]; GAME25-Ox tomato green fruits
  change in level compared to wild-type green fruits: significant increase

## malonyl-solamargine
[2]
  change in level in GAME25-Ox eggplant leaves compared to wild type: reduction

## soladulcine A
[2]
  change in level in GAME25-Ox eggplant leaves compared to wild type: major accumulation

## β-soladulcine
[2]
  change in level in GAME25-Ox eggplant leaves compared to wild type: major accumulation

## saturated malonyl-solamargine [saturated form of malonyl-solamargine]
[2]
  change in level in GAME25-Ox eggplant leaves compared to wild type: major accumulation

## α-tomatine isomer 2 [α-tomatine (isomer 2)]
[1]; GAME25-Ox tomato leaves, lines #91, #92, #93
  change in level compared to wild-type leaves: increased significantly

Reference: patent US12129475B2, “Glycoalkaloid metabolism enyzymes (GAMES) and uses thereof” (priority 2017, dated 2024)
